Results are given in words; binding and its absence hold for the method and conditions named. In cells and extracts the contact can be indirect. Some entries that bind do so weakly or less than the wild type.

The chains behind the UniProt entries cited, without tags or fusion partners. Where a name states a change or a piece, a line headed by the entry shows the natural chain unless it says otherwise.
UniProt P84077: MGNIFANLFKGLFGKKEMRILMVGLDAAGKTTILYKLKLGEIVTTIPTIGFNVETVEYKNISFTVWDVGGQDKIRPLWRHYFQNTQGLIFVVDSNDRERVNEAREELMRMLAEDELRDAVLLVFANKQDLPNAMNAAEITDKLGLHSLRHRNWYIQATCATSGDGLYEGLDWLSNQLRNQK

Experiment [1] has as its target ARF1 R99C (pCMV6-hARF1-R99C-myc-FLAG) (human) (UniProt P84077). Nature of the experiment: co-IP.
Experiment [2] deals with ARF1 WT (pCMV6-hARF1-myc-FLAG) (human) (UniProt P84077). In words: co-IP.

Turning to “ARF1 R99C (pCMV6-hARF1-R99C-myc-FLAG) (from UniProt P84077 1-181) (enzyme)”, the binding result in experiment [1] is “binds”.

Regarding “ARF1 WT (pCMV6-hARF1-myc-FLAG) (from UniProt P84077 1-181) (enzyme)”, the binding entry in experiment [2] is listed as “binds”.

(Values after article doi:10.1101/2023.04.28.23289152.)
